From paper PMC3869942
No constants are given. Whether binding was seen depends on the method and setting. In cells and extracts the contact can be indirect. Some binding calls cover weakened binding; strength is not graded here.

Chains of the proteins cited; added tags and fusions are not shown.
UniProt Q9UKI8: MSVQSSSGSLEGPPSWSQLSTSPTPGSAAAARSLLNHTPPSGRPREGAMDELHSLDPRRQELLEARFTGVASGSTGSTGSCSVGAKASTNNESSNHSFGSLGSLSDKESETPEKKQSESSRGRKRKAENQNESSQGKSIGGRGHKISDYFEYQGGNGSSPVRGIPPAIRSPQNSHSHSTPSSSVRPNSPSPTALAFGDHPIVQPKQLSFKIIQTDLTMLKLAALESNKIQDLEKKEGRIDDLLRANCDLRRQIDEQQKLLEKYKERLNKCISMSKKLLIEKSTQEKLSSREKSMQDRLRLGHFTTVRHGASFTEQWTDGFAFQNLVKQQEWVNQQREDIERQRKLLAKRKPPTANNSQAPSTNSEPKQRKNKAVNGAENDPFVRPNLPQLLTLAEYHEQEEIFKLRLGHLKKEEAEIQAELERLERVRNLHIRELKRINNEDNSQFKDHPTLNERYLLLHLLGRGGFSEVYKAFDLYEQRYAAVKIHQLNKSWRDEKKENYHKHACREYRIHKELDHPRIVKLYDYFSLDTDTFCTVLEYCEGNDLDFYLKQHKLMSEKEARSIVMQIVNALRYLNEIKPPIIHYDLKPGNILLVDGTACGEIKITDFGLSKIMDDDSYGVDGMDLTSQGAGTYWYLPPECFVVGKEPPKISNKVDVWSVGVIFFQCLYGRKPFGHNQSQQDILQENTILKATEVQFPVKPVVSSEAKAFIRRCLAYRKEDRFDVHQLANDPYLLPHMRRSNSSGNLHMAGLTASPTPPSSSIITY

Target: T1, Rad9 (human (endogenous in HeLa)) (UniProt Q99638)
T1 sequence: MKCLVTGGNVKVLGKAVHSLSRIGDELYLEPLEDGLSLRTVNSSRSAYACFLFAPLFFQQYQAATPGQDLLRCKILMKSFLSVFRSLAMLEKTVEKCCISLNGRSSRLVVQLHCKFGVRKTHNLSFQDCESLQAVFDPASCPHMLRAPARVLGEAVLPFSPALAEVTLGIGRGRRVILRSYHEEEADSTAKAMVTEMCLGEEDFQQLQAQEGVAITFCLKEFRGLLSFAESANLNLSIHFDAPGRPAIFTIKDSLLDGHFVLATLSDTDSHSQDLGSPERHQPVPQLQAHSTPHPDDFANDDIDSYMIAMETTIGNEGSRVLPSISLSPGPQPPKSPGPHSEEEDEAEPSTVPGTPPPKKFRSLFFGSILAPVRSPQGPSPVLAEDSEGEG
Assay: co-IP; HeLa cells synchronised at G1/S with a single thymidine block, released 2 hr, exposed to 10Gy IR and harvested at progressive time-points; lysed in NETN buffer (250mM NaCl, 20mM Tris pH 8.0, 0.5% Nonidet P-40, 10% glycerol) in the presence or absence of DNase I; immunoprecipitation with chicken polyclonal anti-Rad9 and anti-chicken IgY-agarose, overnight at 4°C; immunoblot for TLK1

Substance: Tousled-like kinase 1 (from UniProt Q9UKI8 1-766) (enzyme)
- binding: binds
